# Assay results reported in PubChem BioAssay AID1347076 (National Center for Advancing Translational Sciences (NCATS), 2019).
# About 13,000 (3.2%) of roughly 400,000 compounds were called active. Inconclusive results, whose numbers are uncertain, are shown with a selection of clear calls. The call rests on the fitted dose curve; in most records, active means well fitted cell-killing curve with a large enough effect; inconclusive means small, poorly fitted or top-dose-only effect, or effect the other way; inactive means flat fitted curve, though single readings scatter. A potency beside an inconclusive call is a rough fit, not a confirmed value.
# Assay: qHTS assay for MDR1-selective chemotherapeutics: Primary screen using the drug-selected MDR subline cells KB-V1; further: nearly all actives have a fitted effect of over 60% in size
# Conditions: KB-V1 MDR cells viability, CellTiter-Glo, 72 h; activity change, negative = cytotoxicity: at 46.1 µM (top of the series)
# In short: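 KB-V1 cells (P-gp-expressing MDR subline of KB-3-1) in phenol-red-free DMEM with 10% FBS were exposed to library compounds over a concentration series for 72 h at 37 degrees C. Viability read by CellTiter-Glo luminescence; concentration-effect curves fitted after normalization.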
# On the % scale 0 is the no-effect control and ±100 the full control effect; potency means the concentration at half of the fitted maximal effect.
Compound,Potency,"activity change, negative = cytotoxicity"
O=C(Cc1ccc(Cl)cc1)NC(=S)Nc1ccccc1N1CCOCC1,"inconclusive: 16.4 µM [cytotoxic, single point]",
Cc1nc(SCC(=O)Nc2ccc(S(=O)(=O)N3CCOCC3)cc2)c2c(C)c(C)sc2n1,inactive,
CCOCCCNS(=O)(=O)c1ccc(NC(=O)N2c3ccccc3Sc3ccccc32)cc1,"inconclusive: 16.4 µM [cytotoxic, single point]",
CN1C2=CC=CC=CC2=[N+](C)C12C=CC(=[N+]([O-])[O-])C=C2[N+](=O)[O-] (centres undefined),"inconclusive: 23.1 µM [cytotoxic, single point]",
COc1ccccc1NC(c1cccnc1)c1ccc2cccnc2c1O (centres undefined),"inconclusive: 16.4 µM [cytotoxic, single point]",
O=C(N/N=C/c1ccco1)c1ccncc1,inactive,
CC(C)CCn1c(O)c(N=Nc2ccccn2)c2ccccc21,,inconclusive: -85.8%
Cc1cc(C)n(-c2ccc(C(=O)NC3CCCCC3)cc2)n1,"inconclusive: 16.4 µM [cytotoxic, partial curve, poor fit]",
COc1cc(CNCC2CCCO2)ccc1OCC(N)=O (centres undefined),"inconclusive: 29.1 µM [rising, partial curve, poor fit]",
CC(C)NS(=O)(=O)c1ccc(OCC(=O)NCC2CCCO2)c(Cl)c1 (centres undefined),"inconclusive: 14.6 µM [cytotoxic, partial curve]",
COc1cc(NC(=O)c2ccc(Br)cc2)c(OC)cc1NC(=O)c1ccccc1,inactive,
CCOC(=O)C(C(=O)OCC)c1cc(Br)c2noc3c2c1C(=O)c1ccccc1-3,"inconclusive: 23.1 µM [cytotoxic, single point]",
COc1cc(-c2nccc3cc4c(cc23)OCO4)cc(OC)c1OC,active: 5.17 µM,
COc1ccc(NC(=O)c2cccc(S(=O)(=O)N3CCCCC3)c2)c(OC)c1,"inconclusive: 2.59 µM [cytotoxic, full curve, poor fit]",
Cc1ccc(C)c(OCCC(=O)Nc2cccc(S(=O)(=O)N3CCCCC3)c2)c1,active: 14.6 µM,
CC(=O)N1c2c(cc(Br)cc2S(=O)(=O)Nc2ccc(OC(F)(F)F)cc2)CC1C (centres undefined),inactive,
C[N+]1(CC(=O)c2ccc(I)cc2)CCOCC1,inactive,
COc1ccc(/C=C2/SC(=S)N(CCCC(=O)Nc3ccc(O)cc3)C2=O)cc1,"inconclusive: 23.1 µM [cytotoxic, single point]",
Cc1ccc(S(=O)(=O)N2CCN(C(=S)NCc3ccc4c(c3)OCO4)CC2)cc1,"inconclusive: 11.6 µM [cytotoxic, partial curve]",
CC(C)N(c1ccccc1)c1ccc(NC(=O)C2CCCO2)cc1 (centres undefined),active: 20.6 µM,
Cc1ccc(S(=O)(=O)N(C)CC(=O)Oc2ccc(-c3nnco3)cc2)cc1,"inconclusive: 13 µM [rising, partial curve, poor fit]",
O=C(Cc1ccc(Cl)cc1)N/N=C/c1ccccc1,"inconclusive: 20.6 µM [rising, single point]",

# Entries of single compounds as entered above:
# COc1ccc(NC(=O)c2cccc(S(=O)(=O)N3CCCCC3)c2)c(OC)c1 as listed: Potency: inconclusive: 2.59 µM [cytotoxic, full curve, poor fit]
# O=C(N/N=C/c1ccco1)c1ccncc1 as listed: Potency: inactive
# COc1ccc(/C=C2/SC(=S)N(CCCC(=O)Nc3ccc(O)cc3)C2=O)cc1 as listed: Potency: inconclusive: 23.1 µM [cytotoxic, single point]

# Additional results:

Compound,Potency,"activity change, negative = cytotoxicity"
O=C(c1sc2cc(F)ccc2c1Cl)N1CCN(c2cccc(Cl)c2)CC1,"inconclusive: 29.1 µM [cytotoxic, single point]",
CCCN1CCN(C(=O)c2cc(COc3ccc4ncccc4c3)on2)CC1,"inconclusive: 3.66 µM [cytotoxic, full curve]",
Cc1sc2nc(C(C)C)nc(SCC(=O)N3CCOCC3)c2c1C,"inconclusive: 16.4 µM [cytotoxic, partial curve, poor fit]",
Cc1cc(N)ccc1NC(=O)CN1CCOCC1,"inconclusive: 10.3 µM [rising, partial curve, poor fit]",
Cn1c(=O)c2cc(S(=O)(=O)N3CCC(c4ccccc4)CC3)ccc2n(C)c1=O,"inconclusive: 9.2 µM [cytotoxic, partial curve]",
COCCNc1ncnc2c1cnn2Cc1ccc(Cl)cc1,"inconclusive: 29.1 µM [cytotoxic, single point]",
O=C(c1ccc([N+](=O)[O-])s1)N1CCN(c2ccccc2)CC1,"inconclusive: 25.9 µM [cytotoxic, single point]",
COc1cc(C)ccc1S(=O)(=O)NC(=O)C1(C)CCN1C(=O)c1ccc(C2CCCCC2)cc1 (centres undefined),inactive,
Cc1nn(-c2ccccc2)c(C)c1/C=N/NC(=O)CSc1nc2ccccc2c(=O)n1-c1ccc(Br)cc1,active: 23.1 µM,
Nc1cc(C(=O)OCC(=O)NNC(=O)c2cccs2)ccc1Cl,"inconclusive: 18.4 µM [rising, single point]",
CCOCCCNC(=O)c1ccc2c(=O)n(Cc3ccc(OC)cc3)c(=O)[nH]c2c1,inactive,
COc1ccccc1OCCn1cc(/C=N/NC(N)=S)c2ccccc21,inactive,
Cc1cccn2c(=O)c3cc(C(=O)NC4CCCC4)c(=N)n(C4CCCC4)c3nc12,"inconclusive: 29.1 µM [cytotoxic, single point]",
O=C(NCc1ccc(Cl)cc1)c1ccc2oc(=O)n(Cc3ccccc3)c2c1,"inconclusive: 29.1 µM [cytotoxic, single point]",
Cc1nnc(-c2cccc(Br)c2)c2cn(-c3cccc(Br)c3)nc12,active: 9.2 µM,
COC(=O)c1ccc(CN2CCCC(C(=O)Nc3cccc(-n4cnnn4)c3)C2)cc1 (centres undefined),"inconclusive: 16.4 µM [cytotoxic, single point]",
Cc1nc(-c2cccc(NC(=O)COc3ccc(Cl)cc3)c2)cs1,"inconclusive: 16.4 µM [cytotoxic, single point]",
Cc1ccc2nc(NC(=S)NC(=O)c3ccco3)sc2c1,"inconclusive: 8.2 µM [cytotoxic, partial curve, poor fit]",
Cc1cccc(NC(=S)NNC(=O)Cc2ccccc2)c1,"inconclusive: 23.1 µM [cytotoxic, partial curve]",
CC(C)(C)c1ccccc1NC(=O)CN1C(=O)NC(Cc2ccccc2)C1=O (centres undefined),inactive,
O=C(NCCC1CCCCN1S(=O)(=O)c1ccc(Cl)cc1)C(=O)NCc1ccco1 (centres undefined),"inconclusive: 6.51 µM [cytotoxic, partial curve]",
O=c1oc2ccccc2cc1-c1csc(Cc2nc(-c3ccc(Cl)cc3)cs2)n1,"inconclusive: 32.6 µM [cytotoxic, single point]",
